# Experimental data from PubChem BioAssay AID1347076 (National Center for Advancing Translational Sciences (NCATS), 2019).
# In all, about 400,000 compounds went through this assay and about 13,000 (3.2%) were called active. This list was built around the results that the source calls inconclusive (neither active nor inactive); the mix of calls is not that of the screen. Calls follow the shape of the dose curve; as a rule, active = well fitted cell-killing curve with a large enough effect; inconclusive = small, poorly fitted or top-dose-only effect, or effect the other way; inactive = flat fitted curve, though single readings scatter. Potencies of inconclusive entries are doubtful fits and often do not repeat.
# Test: qHTS assay for MDR1-selective chemotherapeutics: Primary screen using the drug-selected MDR subline cells KB-V1; also: nearly all actives have a fitted effect of over 60% in size
# Details: KB-V1 MDR cells viability, CellTiter-Glo, 72 h; activity change, negative = cytotoxicity: at 46.1 µM (top of the series)
# How it was run: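 Cytotoxicity via CellTiter-Glo luminescence after 72 h compound exposure at 37 degrees C. Cells: drug-selected KB-V1 line, DMEM phenol-red free plus 10% FBS. Compounds tested at multiple concentrations; normalized data fitted to concentration-effect curves.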
# % is scaled to controls: 0 for no effect and ±100 for the full control effect; potency is read from the fitted curve at half-maximal effect.
Structure (SMILES),"activity change, negative = cytotoxicity",Potency
COC(=O)C1CCN(C(=O)NC2CCCCC2)CC1,inactive: 14.9%,–
CCC(c1nnnn1Cc1ccco1)N1CCN(c2cc(Cl)ccc2C)CC1 (centres undefined),–,"inconclusive: 32.6 µM [cytotoxic, partial curve, poor fit]"
COc1ccc(-c2nn(Cc3ccccc3)cc2C(=O)N2CCN(c3ncccn3)CC2)cc1OC,–,"inconclusive: 20.6 µM [cytotoxic, single point]"
CCn1c(SCC(=O)Nc2ccccc2OC)nnc1-c1cnccn1,–,"inconclusive: 29.1 µM [cytotoxic, single point]"
CC(NCc1cc(Br)ccc1OCC(N)=O)C12CC3CC(CC(C3)C1)C2 (centres undefined),inactive: -3.35%,–
CCOc1ccc(CCNC(=O)CS(=O)(=O)Cc2nc(-c3ccccc3F)oc2C)cc1,–,"inconclusive: 16.4 µM [cytotoxic, single point]"
O=S(=O)(Nc1nc2ccccc2[nH]1)c1ccc2ccccc2c1,–,"inconclusive: 25.9 µM [cytotoxic, single point]"
CCOC(=O)c1[nH]c(C)c(C(=O)c2cc(F)ccc2F)c1C,–,"inconclusive: 0.184 µM [cytotoxic, full curve, poor fit]"
CC(NS(=O)(=O)c1ccccc1)C(c1cccs1)N1CCN(c2ccccc2)CC1 (centres undefined),–,active: 6.51 µM
CC(C)(C)OC(=O)NCCc1nnc(SCc2ccc(Cl)cc2)o1,–,"inconclusive: 7.31 µM [cytotoxic, partial curve, poor fit]"
CCOC(=O)c1sc(NC(=O)c2cccnc2)c(C#N)c1C,inactive: 22.3%,–
C[C@H](CO)N1C[C@H](C)[C@H](CN(C)S(=O)(=O)c2cn(C)cn2)Oc2ccc(NC(=O)Nc3ccc(C(F)(F)F)cc3)cc2CC1=O,–,"inconclusive: 13 µM [rising, partial curve, poor fit]"
O=C(NC1CCCCC1)C(c1ccc(F)cc1)N(C(=O)c1csnn1)C1CCCC1 (centres undefined),–,"inconclusive: 7.31 µM [cytotoxic, partial curve, poor fit]"
COc1ccc(-c2nc3cccc(C)n3c2NCC2CCCO2)cc1O (centres undefined),–,active: 11.6 µM
CCc1nc2ccccc2[nH]c1=O,–,"inconclusive: 18.4 µM [cytotoxic, single point]"
CC1CCc2sc(C(=O)Nc3ccc(N4CCOCC4)cc3)cc2C1 (centres undefined),inactive: -27.4%,–
CC1CN(C(=O)C2(C)CC2(Br)Br)CC(C)O1 (centres undefined),inactive: -17.3%,–
O=C(CCS(=O)(=O)c1cc2c3c(c1)CCN3C(=O)CC2)Nc1cccc(Br)c1,inactive: 16.5%,–
O=C(O)c1ccc(N2CCN(c3ccc(Cl)cc3)CC2)c([N+](=O)[O-])c1,inactive: 21%,–
CCCNC1=C(N(C(C)=O)c2cccc(F)c2)C(=O)c2ccccc2C1=O,–,"inconclusive: 25.9 µM [cytotoxic, single point]"
O=C(Nc1cnn(Cc2ccc(Cl)cc2Cl)c1)c1noc2c1CCc1ccccc1-2,inactive: 0%,–
O=C(c1cc(C2CC2)nn1-c1ccccc1)N1CCN(Cc2ccccc2F)CC1,inactive: -7.36%,–
Cc1cc2c(cc1S(=O)(=O)CCC(=O)N1CCCCC1C)OCC(=O)N2 (centres undefined),inactive: -2.16%,–
COCc1cccc(-c2csc(C(C)(O)c3cccc(F)c3)n2)c1 (centres undefined),inactive: -18.1%,–
CCOC(=O)c1ccc(NC(=O)C(=O)NCc2ccncc2)cc1,–,"inconclusive: 18.4 µM [cytotoxic, single point]"

# Some of the entries so far, with tabs:
Structure (SMILES)	activity change, negative = cytotoxicity	Potency
CCOC(=O)c1[nH]c(C)c(C(=O)c2cc(F)ccc2F)c1C	–	inconclusive: 0.184 µM [cytotoxic, full curve, poor fit]
CCOC(=O)c1sc(NC(=O)c2cccnc2)c(C#N)c1C	inactive: 22.3%	–
COc1ccc(-c2nc3cccc(C)n3c2NCC2CCCO2)cc1O (centres undefined)	–	active: 11.6 µM
CC1CCc2sc(C(=O)Nc3ccc(N4CCOCC4)cc3)cc2C1 (centres undefined)	inactive: -27.4%	–
O=C(O)c1ccc(N2CCN(c3ccc(Cl)cc3)CC2)c([N+](=O)[O-])c1	inactive: 21%	–
CCCNC1=C(N(C(C)=O)c2cccc(F)c2)C(=O)c2ccccc2C1=O	–	inconclusive: 25.9 µM [cytotoxic, single point]

# More compounds.

Structure (SMILES),"activity change, negative = cytotoxicity",Potency
COCCCNC(=O)C[C@@H]1C[C@@]2(C(=O)OC)CCCCC=C2N(CCc2ccc(OC)c(OC)c2)C1=O,inactive: -23%,–
O=C(Nc1ccccc1)c1cc(C2COCCN2C(=O)CCCc2ccccc2)on1 (centres undefined),inactive: -1.24%,–
CC(NC(=O)Cc1cccc(C(F)(F)F)c1)c1ccc(F)cc1 (centres undefined),–,"inconclusive: 16.4 µM [cytotoxic, single point]"
Nc1ccc2oc(-c3ccccc3Cl)cc(=O)c2c1O,–,"inconclusive: 29.1 µM [cytotoxic, single point]"
C[C@]12c3[nH]c4cc(-c5ccco5)ccc4c3CCN1C(=O)[C@@H](CC(=O)NCCC1=CCCCC1)C[C@@H]2C(=O)N1CCCCC1,–,"inconclusive: 29.1 µM [cytotoxic, single point]"
CCCCc1nc2ccccc2c(=O)n1NC(=O)c1c(O)c2ccccc2n(C)c1=O,–,"inconclusive: 5.8 µM [cytotoxic, full curve, poor fit]"
Cc1cc(C)c(C(=O)CN2C(=O)C(=O)N(C3CCCC3)C2=O)cc1C,inactive: 1.97%,–
COc1ccccc1-c1nnc(NC(=O)c2ccc(S(=O)(=O)N3CCCC3)cc2)o1,–,"inconclusive: 18.4 µM [cytotoxic, single point]"
CC(C)Cc1c2c([nH]c(=S)c1C#N)CCCC2,–,"inconclusive: 16.4 µM [cytotoxic, partial curve]"
COc1ccc(-c2noc(C3CCCN(C(=O)c4ccccc4OC)C3)n2)cc1OC (centres undefined),inactive: -10.9%,–
COc1ccc(NC2CCCN(C(=O)c3c(C)noc3C)C2)cc1 (centres undefined),–,"inconclusive: 20.6 µM [cytotoxic, partial curve, poor fit]"
COc1cc2c(cc1NC(=O)Nc1cccc(C)c1)oc1ccccc12,inactive: 5.43%,–
CC(=O)N1CCN(C(=O)C(Cc2ccccc2)NC(=O)c2ccccc2)CC1 (centres undefined),inactive: -5.43%,–
COc1ccc(S(=O)(=O)N2CCCCCC2)cc1NC(C)C(=O)Nc1ccc(NC(C)=O)cc1 (centres undefined),–,"inconclusive: 13 µM [cytotoxic, partial curve]"
Oc1ccc(Br)cc1-c1nc2cnccn2c1NC1CCCC1,–,active: 23.1 µM
Cc1oc(-c2ccc(C(=O)NCc3ccccc3Cl)cc2)nc1CN1CCc2ccccc21,–,"inconclusive: 2.31 µM [cytotoxic, full curve]"
O=C(CSc1nc(-c2ccccc2)cs1)Nc1ccccc1[N+](=O)[O-],–,"inconclusive: 29.1 µM [cytotoxic, single point]"
CCOc1ccc(/C=N/NC(=S)NC2CC3CC2C2C=CCC32)cc1 (centres undefined),inactive: 0.413%,–
COc1cc(/C=C2\SC(N3CCc4ccccc4C3)=NC2=O)cc(OC)c1OC,–,active: 2.31 µM
O=C(CCC1CCCC1)Nc1cccn(Cc2ccccc2Br)c1=O,–,"inconclusive: 16.4 µM [rising, partial curve]"
CCn1c(C)[n+](Cc2ccccc2)c2ccc(Cl)cc21,inactive: 3.66%,–
COCCNC(=O)C1CCCN(Cc2ccccc2F)CC1 (centres undefined),inactive: 5.4%,–
O=C(CC1N=C2c3ccccc3N=C(SCc3cccc(Cl)c3)N2C1=O)NCCc1ccccc1 (centres undefined),inactive: -18.6%,–
O=C(O)c1ccc(C2(c3ccc(C(=O)O)cc3)OC(=O)c3ccccc32)cc1,–,"inconclusive: 20.6 µM [rising, single point]"
CCOc1ccc(CCNC(=O)Cn2cccc2C(=O)c2ccccc2C)cc1OCC,–,active: 4.61 µM

Structure (SMILES),"activity change, negative = cytotoxicity",Potency
COC(=O)c1ccccc1NC(=O)CSc1n[nH]c(-c2cccnc2)n1,–,"inconclusive: 20.6 µM [cytotoxic, single point]"
COCC(=O)N1CCC(Oc2ccc(C(=O)NC(C)c3csc(C)n3)cc2)CC1 (centres undefined),–,"inconclusive: 13 µM [rising, partial curve, poor fit]"
COc1ccc(CCNC(=O)C2CCN(S(=O)(=O)N3CC(C)CC(C)C3)CC2)cc1OC (centres undefined),–,active: 20.6 µM
CCCS(=O)(=O)c1nnnn1-c1cccc(OC)c1,inactive: -28.5%,–
CCCCC(=O)N(C)c1c(CC)nc2c(OCC=C(C)C)cccn12,inactive: 0.36%,–
CC1(C)C(=O)Nc2ccccc2N1C(=O)COC(=O)COc1cccc(C(F)(F)F)c1,–,"inconclusive: 23.1 µM [rising, single point]"
Cc1c2c(=O)n(-c3nc4ccccc4s3)nc-2cc(O)n1Cc1ccccc1,–,"inconclusive: 25.9 µM [cytotoxic, single point]"
O=C(NCC1CC1)c1ccc(-c2cn[nH]c2)c2ccoc12,inactive: -1.43%,–
COc1ccc(C(=O)OCCc2cc3ccccc3c(=O)o2)cc1,inactive: 18.3%,–
O=C(/C=C/c1ccco1)N1CCN(C/C=C/c2ccccc2)CC1,–,active: 14.6 µM
COc1ccc2[nH]c3nc(SCc4nnc(-c5ccc(C)cc5)o4)nnc3c2c1,–,"inconclusive: 16.4 µM [cytotoxic, partial curve, poor fit]"
O=C1NC[C@H](c2ccccc2)OC(=O)[C@@H](Cc2ccc(F)cc2)C/C=C\C[C@H]1CC(=O)N(CCO)Cc1ccccc1,inactive: -9.63%,–
COc1ccc(C)cc1-n1nnnc1SCC(=O)Nc1cccnc1Cl,–,active: 13 µM
CC(Oc1ccccc1)C(=O)N1CCN(S(=O)(=O)c2ccc(OC(F)(F)F)cc2)CC1 (centres undefined),–,"inconclusive: 16.4 µM [cytotoxic, single point]"
c1ccc2c(c1)oc1c(N3CCN(Cc4ccc5c(c4)OCO5)CC3)ncnc12,–,"inconclusive: 25.9 µM [cytotoxic, partial curve, poor fit]"
COCC(C)n1c(C)cc(C(=O)CSc2nc3ccccc3c(=O)[nH]2)c1C (centres undefined),–,active: 2.59 µM
COc1ccc(N(C)C(=S)Nc2ccc3nc(C)c(C)nc3c2)cc1,–,active: 13 µM
CC(=O)c1ccc(NC(=O)C(C)O/N=C(\N)c2ccccc2)cc1 (centres undefined),–,active: 23.1 µM
COc1ccc(C(=O)N/N=C/c2ccc(N3CCOCC3)o2)cc1OC,inactive: -7.87%,–
Cc1ccc(C(=O)N(c2ccc(C)cc2)S(=O)(=O)c2ccc(Cl)cc2)cc1,–,"inconclusive: 29.1 µM [cytotoxic, single point]"
COCCn1c(C)cc(C(=O)COC(=O)c2n[nH]c3ccccc23)c1C,–,active: 9.2 µM
FC(F)(F)c1nnc2n1N=C(c1cccs1)CS2,–,"inconclusive: 29.1 µM [cytotoxic, single point]"
Cc1ccc(-n2nc(C(=O)N(C)Cc3ccccc3)c3c4ccccc4n(C)c3c2=O)cc1,inactive: 9.86%,–
COc1ccc(C(=O)Cn2c(Br)nc3c2c(=O)n(C)c(=O)n3C)cc1,–,"inconclusive: 23.1 µM [cytotoxic, single point]"
